From the supplement of paper PMC10849652
The list shows a part of the results.

Protein sequences, listed by entry. Tags and fused reporters are not part of them. Lines headed by an entry give the natural chain unless they say otherwise; changes in a name come on top.
UniProt Q96KP1: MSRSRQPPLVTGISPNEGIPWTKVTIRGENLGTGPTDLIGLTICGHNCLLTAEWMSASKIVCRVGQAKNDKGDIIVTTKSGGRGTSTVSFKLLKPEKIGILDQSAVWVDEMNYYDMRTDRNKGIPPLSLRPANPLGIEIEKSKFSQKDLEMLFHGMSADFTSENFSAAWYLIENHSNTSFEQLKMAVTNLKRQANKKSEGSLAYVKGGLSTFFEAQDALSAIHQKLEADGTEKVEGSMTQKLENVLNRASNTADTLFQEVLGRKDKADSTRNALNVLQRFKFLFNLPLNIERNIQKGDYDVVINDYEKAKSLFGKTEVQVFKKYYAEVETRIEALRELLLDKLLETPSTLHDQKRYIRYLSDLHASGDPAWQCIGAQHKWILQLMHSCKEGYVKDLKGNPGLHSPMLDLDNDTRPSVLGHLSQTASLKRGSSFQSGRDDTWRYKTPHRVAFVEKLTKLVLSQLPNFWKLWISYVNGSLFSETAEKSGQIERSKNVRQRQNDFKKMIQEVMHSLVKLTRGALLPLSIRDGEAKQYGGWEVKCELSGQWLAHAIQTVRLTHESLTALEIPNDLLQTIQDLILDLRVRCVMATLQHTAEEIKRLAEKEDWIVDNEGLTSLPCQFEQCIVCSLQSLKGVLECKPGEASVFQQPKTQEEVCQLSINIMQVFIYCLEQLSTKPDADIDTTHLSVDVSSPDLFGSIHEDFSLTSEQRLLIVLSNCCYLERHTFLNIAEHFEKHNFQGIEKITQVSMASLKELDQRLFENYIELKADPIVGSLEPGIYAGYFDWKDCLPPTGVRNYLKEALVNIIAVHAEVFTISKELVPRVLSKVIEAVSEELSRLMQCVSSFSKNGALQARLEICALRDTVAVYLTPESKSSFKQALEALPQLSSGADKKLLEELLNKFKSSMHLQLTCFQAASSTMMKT
UniProt Q5BKY9: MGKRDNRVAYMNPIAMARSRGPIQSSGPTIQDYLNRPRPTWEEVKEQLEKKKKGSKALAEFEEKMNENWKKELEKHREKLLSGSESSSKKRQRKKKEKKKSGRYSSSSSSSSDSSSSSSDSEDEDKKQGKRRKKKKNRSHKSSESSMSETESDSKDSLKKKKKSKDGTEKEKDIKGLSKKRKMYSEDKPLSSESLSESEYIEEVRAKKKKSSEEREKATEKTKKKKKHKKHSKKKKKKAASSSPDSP
UniProt Q9Y5Q0: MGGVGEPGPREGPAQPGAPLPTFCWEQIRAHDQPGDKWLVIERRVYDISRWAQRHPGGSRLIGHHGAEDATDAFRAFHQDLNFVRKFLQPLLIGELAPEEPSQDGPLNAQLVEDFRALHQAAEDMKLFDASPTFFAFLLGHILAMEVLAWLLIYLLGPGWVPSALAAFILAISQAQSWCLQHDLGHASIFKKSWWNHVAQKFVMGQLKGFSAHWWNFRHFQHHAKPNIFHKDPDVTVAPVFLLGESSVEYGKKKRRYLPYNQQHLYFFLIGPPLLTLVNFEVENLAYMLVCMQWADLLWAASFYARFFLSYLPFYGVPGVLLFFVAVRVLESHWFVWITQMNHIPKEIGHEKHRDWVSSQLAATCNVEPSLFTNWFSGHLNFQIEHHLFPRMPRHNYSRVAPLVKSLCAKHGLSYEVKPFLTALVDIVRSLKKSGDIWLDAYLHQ
UniProt O60447: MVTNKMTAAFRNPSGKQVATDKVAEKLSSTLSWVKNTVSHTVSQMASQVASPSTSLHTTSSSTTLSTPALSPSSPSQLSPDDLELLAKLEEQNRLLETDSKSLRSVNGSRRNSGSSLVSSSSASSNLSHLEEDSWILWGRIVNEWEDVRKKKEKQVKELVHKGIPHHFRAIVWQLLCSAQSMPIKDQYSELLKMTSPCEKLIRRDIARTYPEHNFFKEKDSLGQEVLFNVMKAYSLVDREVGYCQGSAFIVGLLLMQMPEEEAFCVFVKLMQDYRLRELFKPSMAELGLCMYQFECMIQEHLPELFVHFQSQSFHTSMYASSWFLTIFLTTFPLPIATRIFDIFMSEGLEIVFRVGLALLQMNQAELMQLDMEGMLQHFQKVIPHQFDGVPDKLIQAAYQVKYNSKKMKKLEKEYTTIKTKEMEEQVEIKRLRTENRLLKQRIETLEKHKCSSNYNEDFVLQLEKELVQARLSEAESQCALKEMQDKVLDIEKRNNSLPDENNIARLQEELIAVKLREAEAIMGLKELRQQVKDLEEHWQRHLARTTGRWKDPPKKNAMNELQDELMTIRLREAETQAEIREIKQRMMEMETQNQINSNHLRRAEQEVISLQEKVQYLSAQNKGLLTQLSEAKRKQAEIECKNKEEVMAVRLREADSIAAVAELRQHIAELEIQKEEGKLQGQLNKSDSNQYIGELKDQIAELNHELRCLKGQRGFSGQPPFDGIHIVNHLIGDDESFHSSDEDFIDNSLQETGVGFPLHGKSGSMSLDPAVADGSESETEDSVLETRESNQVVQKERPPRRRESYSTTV
UniProt Q96A65: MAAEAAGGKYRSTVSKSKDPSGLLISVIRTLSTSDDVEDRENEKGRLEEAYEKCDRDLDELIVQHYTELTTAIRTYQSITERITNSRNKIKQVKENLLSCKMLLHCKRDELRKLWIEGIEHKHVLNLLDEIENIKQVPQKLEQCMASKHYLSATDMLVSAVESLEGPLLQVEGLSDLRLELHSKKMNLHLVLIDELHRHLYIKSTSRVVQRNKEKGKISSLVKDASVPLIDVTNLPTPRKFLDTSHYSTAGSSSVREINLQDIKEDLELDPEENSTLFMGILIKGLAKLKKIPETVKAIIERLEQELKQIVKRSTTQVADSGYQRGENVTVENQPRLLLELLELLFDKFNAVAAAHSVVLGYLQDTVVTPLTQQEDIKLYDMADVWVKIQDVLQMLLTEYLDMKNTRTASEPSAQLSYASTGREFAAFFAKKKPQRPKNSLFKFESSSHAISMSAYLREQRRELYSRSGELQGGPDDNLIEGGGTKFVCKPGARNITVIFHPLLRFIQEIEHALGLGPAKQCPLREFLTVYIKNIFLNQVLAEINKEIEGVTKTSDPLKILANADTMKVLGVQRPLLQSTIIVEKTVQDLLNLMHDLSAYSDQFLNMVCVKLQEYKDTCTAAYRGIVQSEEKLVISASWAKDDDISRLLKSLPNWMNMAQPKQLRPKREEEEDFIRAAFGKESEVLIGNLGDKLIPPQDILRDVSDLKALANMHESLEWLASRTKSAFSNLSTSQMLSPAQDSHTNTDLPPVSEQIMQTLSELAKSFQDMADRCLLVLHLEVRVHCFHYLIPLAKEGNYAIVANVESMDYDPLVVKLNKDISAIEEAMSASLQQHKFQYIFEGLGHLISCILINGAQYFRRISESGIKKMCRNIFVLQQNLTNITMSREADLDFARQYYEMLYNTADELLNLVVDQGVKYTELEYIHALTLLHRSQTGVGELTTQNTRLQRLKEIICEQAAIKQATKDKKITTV
UniProt Q96KR6: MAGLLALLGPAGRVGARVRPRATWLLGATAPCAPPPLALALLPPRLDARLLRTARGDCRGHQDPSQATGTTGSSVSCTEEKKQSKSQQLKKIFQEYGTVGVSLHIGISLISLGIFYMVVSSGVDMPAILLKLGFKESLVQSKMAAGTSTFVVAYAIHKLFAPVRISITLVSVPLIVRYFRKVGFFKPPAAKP
UniProt Q5JUQ0: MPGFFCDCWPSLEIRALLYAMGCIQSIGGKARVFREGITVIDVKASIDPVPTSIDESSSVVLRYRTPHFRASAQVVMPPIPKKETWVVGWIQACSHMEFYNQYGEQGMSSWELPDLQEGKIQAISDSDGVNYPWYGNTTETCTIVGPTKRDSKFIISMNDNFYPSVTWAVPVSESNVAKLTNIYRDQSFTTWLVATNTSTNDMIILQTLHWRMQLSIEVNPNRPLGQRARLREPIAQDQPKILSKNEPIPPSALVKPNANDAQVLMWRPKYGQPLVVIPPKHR
UniProt Q96DF8: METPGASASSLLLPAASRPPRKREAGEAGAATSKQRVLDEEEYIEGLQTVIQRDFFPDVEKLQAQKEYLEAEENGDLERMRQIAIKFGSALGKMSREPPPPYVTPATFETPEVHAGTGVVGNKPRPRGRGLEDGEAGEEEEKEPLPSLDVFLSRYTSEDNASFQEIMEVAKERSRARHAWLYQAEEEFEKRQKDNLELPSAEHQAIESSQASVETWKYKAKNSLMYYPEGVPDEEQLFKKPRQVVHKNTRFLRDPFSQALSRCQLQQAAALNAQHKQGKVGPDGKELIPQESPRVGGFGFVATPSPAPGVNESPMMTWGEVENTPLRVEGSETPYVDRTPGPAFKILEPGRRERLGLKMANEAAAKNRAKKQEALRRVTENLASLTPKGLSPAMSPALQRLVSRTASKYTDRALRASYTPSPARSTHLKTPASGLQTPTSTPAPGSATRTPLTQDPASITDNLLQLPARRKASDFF
UniProt Q86YB8: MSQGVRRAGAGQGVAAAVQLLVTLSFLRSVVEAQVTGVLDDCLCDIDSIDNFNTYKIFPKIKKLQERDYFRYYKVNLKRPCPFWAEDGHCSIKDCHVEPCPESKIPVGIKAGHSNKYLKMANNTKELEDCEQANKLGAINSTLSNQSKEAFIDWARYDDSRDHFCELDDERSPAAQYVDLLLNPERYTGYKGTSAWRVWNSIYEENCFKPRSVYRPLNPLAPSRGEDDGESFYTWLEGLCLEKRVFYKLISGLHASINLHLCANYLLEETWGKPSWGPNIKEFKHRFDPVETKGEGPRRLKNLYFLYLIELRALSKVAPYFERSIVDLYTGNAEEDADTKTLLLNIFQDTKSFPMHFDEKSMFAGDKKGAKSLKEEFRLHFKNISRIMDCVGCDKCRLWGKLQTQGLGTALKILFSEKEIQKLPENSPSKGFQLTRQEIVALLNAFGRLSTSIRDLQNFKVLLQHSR
UniProt P38117: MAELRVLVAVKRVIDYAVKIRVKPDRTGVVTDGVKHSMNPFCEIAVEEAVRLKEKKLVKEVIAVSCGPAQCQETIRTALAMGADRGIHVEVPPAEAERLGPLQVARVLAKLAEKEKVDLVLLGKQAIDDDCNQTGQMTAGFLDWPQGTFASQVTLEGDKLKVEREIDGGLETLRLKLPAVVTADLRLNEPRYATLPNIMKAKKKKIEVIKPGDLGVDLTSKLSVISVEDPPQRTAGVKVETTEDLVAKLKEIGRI
UniProt Q9UI08, whole entry, looked up: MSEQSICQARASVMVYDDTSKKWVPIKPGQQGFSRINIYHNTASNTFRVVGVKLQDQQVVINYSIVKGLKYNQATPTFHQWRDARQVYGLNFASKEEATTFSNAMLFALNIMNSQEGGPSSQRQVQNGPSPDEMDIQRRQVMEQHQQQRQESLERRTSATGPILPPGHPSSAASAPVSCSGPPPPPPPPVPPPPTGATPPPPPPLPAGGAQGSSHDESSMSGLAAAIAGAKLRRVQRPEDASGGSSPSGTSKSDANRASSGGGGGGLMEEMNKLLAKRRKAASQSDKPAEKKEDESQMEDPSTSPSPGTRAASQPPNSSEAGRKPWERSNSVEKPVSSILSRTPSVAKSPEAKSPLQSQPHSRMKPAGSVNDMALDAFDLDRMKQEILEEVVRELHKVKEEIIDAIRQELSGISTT
UniProt Q9H0X4: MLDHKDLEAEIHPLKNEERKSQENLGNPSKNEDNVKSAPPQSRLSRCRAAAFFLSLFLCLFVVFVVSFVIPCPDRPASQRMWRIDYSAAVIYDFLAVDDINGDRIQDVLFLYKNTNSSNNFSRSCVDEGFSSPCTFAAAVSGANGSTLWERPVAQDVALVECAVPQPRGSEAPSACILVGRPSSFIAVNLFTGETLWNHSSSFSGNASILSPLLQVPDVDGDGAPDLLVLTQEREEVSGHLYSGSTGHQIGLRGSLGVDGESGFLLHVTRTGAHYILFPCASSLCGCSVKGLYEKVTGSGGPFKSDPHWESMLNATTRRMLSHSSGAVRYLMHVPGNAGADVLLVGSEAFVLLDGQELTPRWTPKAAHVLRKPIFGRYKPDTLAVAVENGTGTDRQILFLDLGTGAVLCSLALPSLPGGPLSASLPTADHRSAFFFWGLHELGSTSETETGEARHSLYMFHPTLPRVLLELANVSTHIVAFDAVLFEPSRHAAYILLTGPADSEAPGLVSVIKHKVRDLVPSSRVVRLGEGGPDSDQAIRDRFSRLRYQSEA
UniProt P13804: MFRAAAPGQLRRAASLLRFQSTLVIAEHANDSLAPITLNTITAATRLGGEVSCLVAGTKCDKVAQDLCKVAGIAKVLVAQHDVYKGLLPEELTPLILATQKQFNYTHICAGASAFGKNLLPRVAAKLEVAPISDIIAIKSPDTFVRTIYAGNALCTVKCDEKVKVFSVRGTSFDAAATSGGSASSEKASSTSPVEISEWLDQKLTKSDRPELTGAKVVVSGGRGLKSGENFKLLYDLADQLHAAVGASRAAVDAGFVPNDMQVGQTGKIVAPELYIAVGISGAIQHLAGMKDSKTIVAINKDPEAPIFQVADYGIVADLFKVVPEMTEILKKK

What was measured:
Assay in all cases: log2 fold change, soluble protein after heating vs DMSO (PISA); higher = thermal stabilisation; K562 lysate, 10 uM; active = over 0.2 and 3.5 SD of the protein, either way, in both replicates (recomputed)
ibrutinib = compound: C=CC(=O)N1CCC[C@@H](n2nc(-c3ccc(Oc4ccccc4)cc3)c3c(N)ncnc32)C1 [ibrutinib]
Outline: (§1)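 Dounce homogenisation of K562 pellets in PBS pH 7.4 with 1 mM MgCl2 produced a crude extract, used at 1 mg/mL protein. Exposure to 10 μM compound lasted 30 min, and aliquots were then heated for 3 min across 48°C-58°C, pooled and brought to 0.5% NP-40 at 4°C. The supernatant after 21,000xg for 90 min was quantified by TMTpro 16plex LC-MS/MS with channel sums equalised. Duplicate values are given as log-two fold change in thermal stability relative to solvent controls.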

[1] = compound: CC(=O)c1cnc2ccc(-c3cc(Cl)c(O)c(Cl)c3)nc2c1N[C@H]1CC[C@H](CN(C)C)CC1
Outline: as §1

ralimetinib = compound: CC(C)(C)Cn1c(N)nc2ccc(-c3[nH]c(C(C)(C)C)nc3-c3ccc(F)cc3)nc21 [ralimetinib]
Outline: as §1

[2] = compound: CC(C)(O)CC(=O)NCCn1ccc2ncnc(Nc3ccc(Oc4cccc(C(F)(F)F)c4)c(Cl)c3)c21
Outline: as §1

[3] = compound: CC(C)C1=C2N=C(C=C(N2N=C1)NCC3=CC=CC=C3)NCCCCCCN
Outline: as §1

[4] = compound: CC1=C(C(CC(=O)N1)C2=CC=C(C=C2)C(F)(F)F)C(=O)NC3=C(C=C4C(=C3)C=NN4)F
Outline: as §1

[5] = compound: CC1=C(C2=C(C=C1)C(=O)C3=CC=CC=C3N2CCCN)C
Outline: as §1

[6] = compound: CC1=C(C=C(C=C1)NC(=O)C2=CC(=CC=C2)C(C)(C)C#N)NC3=CC4=C(C=C3)N=CN(C4=O)C
Outline: as §1

[7] = compound: CC1=C(C=C(C=C1)NC(=O)C2=CC(=CC=C2)N(C)C)NC(=O)C3=CC=C(C=C3)O
Outline: as §1

[8] = compound: CC1=CC=C(C=C1)SC2=C3C=C(SC3=CN=C2)C(=O)N
Outline: as §1

vemurafenib = compound: CCCS(=O)(=O)Nc1ccc(F)c(C(=O)c2c[nH]c3ncc(-c4ccc(Cl)cc4)cc23)c1F [vemurafenib]
Outline: as §1

[9] = compound: CCCS(=O)(=O)Nc1ccc(F)c(C(=O)c2c[nH]c3ncc(Cl)cc23)c1F
Outline: as §1

barasertib = compound: CCN(CCCOc1ccc2c(Nc3cc(CC(=O)Nc4cccc(F)c4)[nH]n3)ncnc2c1)CCOP(=O)(O)O [barasertib]
Outline: as §1

[10] = compound: CC[C@@H]1C(=O)N(C)c2cnc(Nc3ccc(C(=O)NC4CCN(C)CC4)cc3OC)nc2N1C1CCCC1
Outline: as §1

volasertib = compound: CC[C@@H]1C(=O)N(C)c2cnc(Nc3ccc(C(=O)N[C@H]4CC[C@H](N5CCN(CC6CC6)CC5)CC4)cc3OC)nc2N1C(C)C [volasertib]
Outline: as §1

[11] = compound: CCn1c(C(=O)N(C2CC2)C2CC2)cc2c3c(ncn3C)c(Nc3cc(C)n(C)n3)nc21
Outline: as §1

[12] = compound: CCn1cc(-c2ccnc3[nH]c(-c4cccc(CN(C)C)c4)cc23)c(-c2ccc(NC(=O)N(C)C)cc2)n1
Outline: as §1

[13] = compound: CN1CCC(CNc2ccc3ncc(-c4cccc(OC(F)(F)F)c4)n3n2)CC1
Outline: as §1

saracatinib = compound: CN1CCN(CCOc2cc(OC3CCOCC3)c3c(Nc4c(Cl)ccc5c4OCO5)ncnc3c2)CC1 [saracatinib]
Outline: as §1

sotrastaurin = compound: CN1CCN(c2nc(C3=C(c4c[nH]c5ccccc45)C(=O)NC3=O)c3ccccc3n2)CC1 [sotrastaurin]
Outline: as §1

| Target | log2 fold change (ibrutinib) | log2 fold change [1] | log2 fold change (ralimetinib) | log2 fold change [2] | log2 fold change [3] | log2 fold change [4] | log2 fold change [5] | log2 fold change [6] | log2 fold change [7] | log2 fold change [8] | log2 fold change (vemurafenib) | log2 fold change [9] | log2 fold change (barasertib) | log2 fold change [10] | log2 fold change (volasertib) | log2 fold change [11] | log2 fold change [12] | log2 fold change [13] | log2 fold change (saracatinib) | log2 fold change (sotrastaurin) |
| --- | --- | --- | --- | --- | --- | --- | --- | --- | --- | --- | --- | --- | --- | --- | --- | --- | --- | --- | --- | --- |
| ERVK3-1, A0A0U1RQV1 | inactive: 0.117 | inactive: -0.026 | inactive: 0.09 | inactive: -0.038 | inactive: 0.015 | inactive: -0.031 | inactive: 0.006 | inactive: 0.067 | inactive: -0.012 | inactive: -0.056 | inactive: 0.088 | inactive: -0.039 | inactive: 0.056 | inactive: -0.003 | inactive: -0.006 | inactive: -0.018 | inactive: -0.291 | inactive: 0.139 | inactive: 0.084 | inactive: -0.004 |
| EXOC2 (UniProt Q96KP1) | inactive: 0.014 | inactive: 0.003 | inactive: 0.049 | inactive: -0.027 | inactive: -0.022 | inactive: 0.01 | inactive: -0.019 | inactive: 0.016 | inactive: 0.032 | inactive: 0.004 | inactive: 0.018 | inactive: 0.109 | inactive: 0.041 | inactive: -0.028 | inactive: -0.043 | inactive: 0.031 | inactive: 0.017 | inactive: -0.094 | inactive: 0.034 | inactive: 0.049 |
| FAM133B (UniProt Q5BKY9) | inactive: -0.079 | inactive: 0.022 | inactive: 0.016 | inactive: 0.035 | inactive: -0.124 | inactive: -0.008 | inactive: -0.018 | inactive: -0.042 | inactive: -0.018 | inactive: -0.042 | inactive: 0.124 | inactive: -0.027 | inactive: 0.076 | inactive: -0.22 | inactive: 0.008 | inactive: 0.023 | inactive: 0.323 | inactive: -0.16 | inactive: 0.057 | inactive: 0.017 |
| FADS3 (UniProt Q9Y5Q0) | inactive: 0.11 | inactive: -0.02 | inactive: -0.123 | inactive: 0.075 | inactive: -0.051 | inactive: 0.074 | inactive: -0.49 | inactive: 0.015 | inactive: 0.017 | inactive: -0.017 | inactive: 0.066 | inactive: 0.149 | inactive: 0 | inactive: 0.119 | inactive: -0.103 | inactive: 0.023 | active: -0.957 | inactive: 0.343 | inactive: 0.152 | inactive: -0.057 |
| EVI5 isoform 2 (UniProt O60447) | inactive: -0.025 | inactive: 0.029 | inactive: 0.054 | inactive: -0.009 | inactive: 0.133 | inactive: -0.026 | inactive: -0.008 | inactive: 0.398 | inactive: -0.059 | inactive: -0.015 | inactive: -0.214 | inactive: 0.132 | inactive: -0.008 | inactive: -0.02 | inactive: -0.068 | inactive: 0.015 | inactive: 0.001 | inactive: -0.075 | inactive: 0.096 | inactive: -0.117 |
| EXOC4 (UniProt Q96A65) | inactive: -0.004 | inactive: -0.011 | inactive: 0.014 | inactive: -0.031 | inactive: -0.003 | inactive: -0.013 | inactive: 0.022 | inactive: -0.031 | inactive: 0.02 | inactive: 0.002 | inactive: 0.079 | inactive: 0.01 | inactive: 0.055 | inactive: -0.06 | inactive: -0.055 | inactive: 0.025 | inactive: 0.022 | inactive: -0.079 | inactive: 0.006 | inactive: 0.018 |
| FAM210B (UniProt Q96KR6) | inactive: -0.049 | inactive: -0.017 | inactive: 0.064 | inactive: -0.08 | inactive: -0.008 | inactive: -0.011 | inactive: -0.006 | inactive: 0.024 | inactive: 0.036 | inactive: 0.013 | inactive: 0.125 | inactive: 0.017 | inactive: 0.015 | inactive: 0.047 | inactive: 0.08 | inactive: -0.068 | inactive: -0.088 | inactive: 0.106 | inactive: -0.02 | inactive: -0.012 |
| FAM78A (UniProt Q5JUQ0) | inactive: -0.035 | inactive: -0.311 | inactive: 0.111 | inactive: -0.123 | inactive: -0.056 | inactive: 0.015 | inactive: -0.05 | inactive: -0.014 | inactive: 0.013 | inactive: 0.051 | inactive: 0.047 | inactive: -0.423 | inactive: 0.124 | inactive: 0.085 | inactive: 0 | inactive: -0.069 | inactive: -0.064 | inactive: 0.046 | inactive: -0.236 | inactive: 0.03 |
| ESS2 (UniProt Q96DF8) | inactive: -0.009 | inactive: -0.012 | inactive: -0.008 | inactive: -0.015 | inactive: -0.016 | inactive: 0.048 | inactive: -0.008 | inactive: 0.124 | inactive: -0.04 | inactive: 0 | inactive: 0 | inactive: 0.003 | inactive: -0.019 | inactive: 0.135 | inactive: 0.014 | inactive: 0.028 | inactive: -0.014 | inactive: 0.049 | inactive: -0.011 | inactive: -0.02 |
| ERO1B (UniProt Q86YB8) | inactive: -0.03 | inactive: 0.027 | inactive: -0.043 | inactive: -0.017 | inactive: 0.063 | inactive: -0.161 | inactive: -0.087 | inactive: -0.084 | inactive: 0.022 | inactive: -0.014 | inactive: 0.117 | inactive: 0.058 | inactive: 0.037 | inactive: 0.004 | inactive: -0.016 | inactive: -0.004 | inactive: 0.053 | inactive: 0.162 | inactive: 0.079 | inactive: 0.058 |
| ETFB (UniProt P38117) | inactive: -0.053 | inactive: -0.008 | inactive: -0.024 | inactive: -0.009 | inactive: -0.016 | inactive: -0.037 | inactive: 0 | inactive: -0.014 | inactive: 0.011 | inactive: -0.006 | inactive: 0.018 | inactive: -0.024 | inactive: -0.009 | inactive: 0.028 | inactive: 0.017 | inactive: -0.013 | inactive: -0.099 | inactive: 0.049 | inactive: 0.001 | inactive: -0.01 |
| ERO1A (UniProt Q96HE7) | inactive: 0.002 | inactive: 0.003 | inactive: 0.015 | inactive: 0.007 | inactive: -0.011 | inactive: -0.008 | inactive: 0 | inactive: 0.01 | inactive: 0.002 | inactive: 0.001 | inactive: -0.005 | inactive: 0.008 | inactive: -0.034 | inactive: -0.069 | inactive: -0.007 | inactive: -0.024 | inactive: 0.081 | inactive: -0.041 | inactive: 0.013 | inactive: 0.047 |
| EXOSC8 (UniProt Q96B26) | inactive: -0.038 | inactive: -0.005 | inactive: 0.035 | inactive: -0.02 | inactive: 0.008 | inactive: -0.036 | inactive: 0.006 | inactive: 0.05 | inactive: 0.021 | inactive: -0.02 | inactive: -0.116 | inactive: 0.008 | inactive: -0.037 | inactive: 0.028 | inactive: 0.018 | inactive: -0.002 | inactive: -0.049 | inactive: 0.015 | inactive: 0.011 | inactive: 0.054 |
| EVL isoform 2 (UniProt Q9UI08) | inactive: 0.114 | inactive: -0.011 | inactive: -0.018 | inactive: -0.069 | inactive: -0.068 | inactive: 0.144 | inactive: 0.154 | inactive: -0.047 | inactive: 0.192 | inactive: -0.009 | inactive: 0.046 | inactive: 0.016 | inactive: 0.006 | inactive: 0.03 | inactive: -0.005 | inactive: -0.215 | inactive: -0.007 | inactive: 0.041 | inactive: 0.031 | inactive: 0.003 |
| FAM234A (UniProt Q9H0X4) | inactive: -0.018 | inactive: 0.036 | inactive: -0.009 | inactive: -0.087 | inactive: -0.033 | inactive: 0 | inactive: 0.012 | inactive: 0.075 | inactive: 0.025 | inactive: -0.042 | inactive: 0.025 | inactive: -0.045 | inactive: 0.037 | inactive: 0.133 | inactive: 0.04 | inactive: -0.033 | inactive: -0.05 | inactive: 0.042 | inactive: 0.036 | inactive: -0.007 |
| ETFA (UniProt P13804) | inactive: 0.007 | inactive: 0.013 | inactive: -0.009 | inactive: 0.01 | inactive: -0.017 | inactive: -0.021 | inactive: -0.012 | inactive: 0.018 | inactive: -0.019 | inactive: 0.019 | inactive: -0.001 | inactive: -0.015 | inactive: 0.014 | inactive: -0.055 | inactive: 0.003 | inactive: -0.016 | inactive: -0.024 | inactive: -0.038 | inactive: -0.153 | inactive: -0.031 |

2 entries from above, set out differently.
Target	log2 fold change (ibrutinib)	log2 fold change [1]	log2 fold change (ralimetinib)	log2 fold change [2]	log2 fold change [3]	log2 fold change [4]	log2 fold change [5]	log2 fold change [6]	log2 fold change [7]	log2 fold change [8]	log2 fold change (vemurafenib)	log2 fold change [9]	log2 fold change (barasertib)	log2 fold change [10]	log2 fold change (volasertib)	log2 fold change [11]	log2 fold change [12]	log2 fold change [13]	log2 fold change (saracatinib)	log2 fold change (sotrastaurin)
ERVK3-1, A0A0U1RQV1	inactive: 0.117	inactive: -0.026	inactive: 0.09	inactive: -0.038	inactive: 0.015	inactive: -0.031	inactive: 0.006	inactive: 0.067	inactive: -0.012	inactive: -0.056	inactive: 0.088	inactive: -0.039	inactive: 0.056	inactive: -0.003	inactive: -0.006	inactive: -0.018	inactive: -0.291	inactive: 0.139	inactive: 0.084	inactive: -0.004
ESS2 (UniProt Q96DF8)	inactive: -0.009	inactive: -0.012	inactive: -0.008	inactive: -0.015	inactive: -0.016	inactive: 0.048	inactive: -0.008	inactive: 0.124	inactive: -0.04	inactive: 0	inactive: 0	inactive: 0.003	inactive: -0.019	inactive: 0.135	inactive: 0.014	inactive: 0.028	inactive: -0.014	inactive: 0.049	inactive: -0.011	inactive: -0.02
